# According to article PMC7650648:
# Sequences of proteins named here, by UniProt entry; tags and fusion partners are left off. Residues count along the entry.
# UniProt Q44849, residues 23-169: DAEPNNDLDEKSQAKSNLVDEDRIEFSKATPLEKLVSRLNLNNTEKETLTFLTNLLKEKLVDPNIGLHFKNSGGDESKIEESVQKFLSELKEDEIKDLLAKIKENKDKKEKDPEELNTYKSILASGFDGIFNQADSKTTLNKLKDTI
# Results are given in words; binding and its absence hold for the method and conditions named.
# Target: BBA03_(23–169), Borrelia burgdorferi outer surface lipoprotein BBA03 (Borrelia burgdorferi B31) (UniProt Q44849)
# Assay: NMR 15N T1/T2 relaxation (rotational correlation time); 13C,15N-labeled BBA03 in 20 mM sodium phosphate, pH 6.8, 50 mM NaCl, 298 K; tau-c from average T1 and T2 of rigid regions, compared with MW/tau-c of reference globular proteins; both purified
substance,measurement,value
"BBA03_(23–169), Borrelia burgdorferi outer surface lipoprotein BBA03 (from UniProt Q44849 23-169) (domain or fragment)",binding,no binding (tested: 1.5 to 2 mM)
